The data set can be described thus: Haematological changes after treatment of infected vervet monkeys. It is filed as in vivo, vervet monkey. As to conditions: DB829 IM or DB868 orally.

Regarding `N=C(N)c1ccc(-c2ccc(-c3ccc(C(=N)N)cn3)o2)nc1` [DB829, 2,5-bis(5-amidino-2-pyridyl)furan], the “time for RBC counts to recover to baseline levels upon treatment” value is 1–2 months.

Source of the values: publication PMC4318582, “Chemotherapy of Second Stage Human African Trypanosomiasis: Comparison between the Parenteral Diamidine DB829 and Its Oral Prodrug DB868 in Vervet Monkeys” (PLoS Neglected Tropical Diseases, 2015).
